Data taken from patent US12540171B2, “Compositions and methods for treating ocular disease” (Asclepix Therapeutics, Inc., priority 2019, dated 2026).
Part of at least one peptide drawing is inferred or uncertain, most often the ends. No end group written: not given here.

Legend:
[1] = Gel formation and persistence in the vitreous after intravitreal injection; settings: one day after intravitreal injection
[2] = tested on: VEGF-induced vascular leakage; assay: VEGF-induced vascular leakage in rabbit eye, vitreous fluorophotometry (VFP); assay type: in vivo, Dutch Belted rabbits; settings: single intravitreous injection of 100 μg or 500 μg
[3] = Gel formation in human vitreous (tube); assay type: physicochemical; settings: vitreous from a person and a person
integrin targets = assay: Binding of AXT107 to its integrin targets

## LRRFSTAPFAFIDINDVINF [AXT107]
[1]
  gel formation at the site of injection in rabbit vitreous: a gel was visible at the site of injection
[2]
  duration of inhibition of VEGF-induced vascular leakage: at least 12 months
[2]; 10 μg VEGF challenge monthly, normalized to VEGF only
  inhibition of VEGF-induced vascular leakage: potently inhibits VEGF-induced vascular leakage
[3]
  gel formation in human vitreous: forms a gel in human vitreous
Integrin targets
  Kd: 1 to 2 nM
